Values from PubChem BioAssay AID652243 (Drosophila RNAi Screening Center, 2013).

Screen: 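Knock-downs that decrease or increase androgen receptor reporter signal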 (primary screen)
Cells: Drosophila S2R+ cells
Reagent: long dsRNA against Drosophila genes
Duration: 72 h (48 h, then 24 h hormone)
Challenge: synthetic androgen R1881 at 10 nM for 24 h
Measured: 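Per-well raw luminescence of the androgen-driven firefly reporter and of the Renilla control, two replicates each, without normalisation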
Reading the numbers: firefly reporter light: higher = more light from androgen-responsive reporter; Renilla control light: higher = more constitutive control signal (cell number, transfection)
Rule for the call: 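Across duplicate plates, a knock-down whose log firefly/Renilla ratio shifted a set fold down or up from the GFP/LacZ control mean was a hit; the downward cut appears as both 1.5 and 3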
Meaning of the calls: active = hit: reporter lowered or raised; inactive = no hit
The deposit covers about 24,000 reagents; below is a random part of those with a known target gene and a result. Over the whole deposit, 246 (1%) were called active. 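Plates not normalised; calls are printed but the firefly/Renilla ratio behind them is not deposited; fold cut for lowering reported inconsistently.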 The raw values are shown without normalisation. Unmarked entries are inactive. A plus sign joins genes that one reagent is predicted to hit. Not stated in the record: the amount of reagent.

firefly reporter light, replicate 1	firefly reporter light, replicate 2	Renilla control light, replicate 1	Renilla control light, replicate 2	Target gene	amplicon
2.45e5	1.97e5	3.22e6	2.90e6	Aps	DRSC10629
4.16e5	2.75e5	2.81e6	2.51e6	CG1663	DRSC06613
4.03e5	6.57e5	1.19e6	1.86e6	CG1663	DRSC22488
3.13e5	1.08e6	9.10e5	1.70e6	CG1663	DRSC28315
47135	37054	3.05e5	2.66e5	Edc3	DRSC10620
1.15e6	1.10e6	1.26e6	1.30e6	Edc3	DRSC23994
2.25e5	1.10e5	1.05e6	7.79e5	Caf1-105	DRSC06209
1.43e5	1.33e5	1.49e6	1.74e6	Exo70	DRSC10774
2.22e5	2.33e5	2.39e6	2.89e6	Vha13	DRSC16895
57264	50524	4.70e5	4.34e5	yrt	DRSC16559
39789 (active)	54215	9.31e5	1.19e6	CstF64	DRSC16616
3.79e5	4.74e5	9.78e5	9.78e5	CstF64	DRSC29486
45261	56492	3.30e5	2.34e5	Glg1	DRSC11815
2.89e5	2.12e5	2.27e6	1.16e6	Glg1	DRSC11816
3.08e5	2.79e5	3.12e6	2.79e6	Glg1	DRSC11817
3.40e5	2.85e5	2.51e6	2.50e6	HP1c	DRSC16166
3.07e5	3.25e5	4.45e5	8.51e5	HP1c	DRSC28423
3.18e5	2.60e5	3.00e6	2.68e6	CG10140	DRSC09704
3.68e5	3.30e5	8.30e5	8.78e5	CG10140	DRSC26220
48872	74303	1.87e6	2.22e6	Adgf-C	DRSC16473
4.87e5	4.14e5	7.89e5	5.18e5	Adgf-C	DRSC27008
37543	32305	6.06e5	5.23e5	CG14180 (retired record)	DRSC10179
1.04e6	9.64e5	6.37e5	7.10e5	CG14180 (retired record)	DRSC25107
5.78e5	7.34e5	1.66e6	1.70e6	CG8768	DRSC07259
8.66e5	8.27e5	2.53e6	2.24e6	Sgf29	DRSC04076
1.39e5	79885	2.26e6	1.61e6	scramb2	DRSC08543
2.90e5	2.48e5	6.50e5	5.50e5	scramb2	DRSC26609
1.59e6	1.25e6	1.65e6	1.40e6	Rab4	DRSC07524
2.33e5	2.73e5	4.71e6	3.39e6	TfIIA-S-2	DRSC17791
3.14e5	3.06e5	1.80e6	1.47e6	U2A	DRSC06445
5.10e5	5.85e5	1.48e6	1.66e6	U2A	DRSC28070
2.98e5	2.34e5	1.73e6	1.12e6	CG14931	DRSC02413
2.32e5	1.75e5	2.40e6	2.03e6	uif	DRSC03427
3.55e5	3.76e5	1.98e6	1.89e6	Sec61beta	DRSC07548
6.49e5	7.52e5	1.54e6	1.84e6	Sec61beta	DRSC21512
3.26e5	4.89e5	1.09e6	1.36e6	Sec61beta	DRSC28915
1.42e5	1.39e5	1.13e6	1.37e6	ACXB	DRSC00845
3.51e5	3.69e5	6.18e5	6.21e5	ACXB	DRSC26343
1.50e5	70641	1.46e6	9.38e5	spi	DRSC03618
5.44e5	6.99e5	1.34e6	1.34e6	spi	DRSC29414
5.75e5	6.91e5	7.04e5	6.72e5	CG33502 + CG32857 + CG32500	DRSC20817
2.14e5	1.33e5	3.43e5	3.90e5	CG33502 + CG32857 + CG32500	DRSC21038
73892	91749	7.74e5	8.60e5	CG11906	DRSC06096
2.10e5	2.32e5	2.44e6	1.97e6	RasGAP1	DRSC11172
1.79e5	1.77e5	9.92e5	1.28e6	Lip4	DRSC02930
48607	49024	9.00e5	9.00e5	ItgaPS4	DRSC06630
1.51e5	2.26e5	1.36e6	1.69e6	Acp32CD	DRSC01858
1.14e6	1.13e6	1.25e6	1.00e6	Acp32CD	DRSC23817
9.64e5	7.98e5	1.79e6	1.24e6	Acp32CD	DRSC38978
1.31e5	83433	8.64e5	7.75e5	Ddrgk1	DRSC15897
2.90e5	1.70e5	4.85e5	5.78e5	Ddrgk1	DRSC27688
1.46e5	2.02e5	1.84e6	2.79e6	cv-c	DRSC14969
2.30e5	1.66e5	2.48e6	3.22e6	cv-c	DRSC14970
1.70e5	1.26e5	2.68e6	2.26e6	cv-c	DRSC14972
4.00e5	5.27e5	2.60e6	3.28e6	cv-c	DRSC16428
8.31e5	9.73e5	1.57e6	1.75e6	cv-c	DRSC23199
6.56e5	9.24e5	8.63e5	9.33e5	cv-c	DRSC23809
2.51e5	2.72e5	6.11e5	4.55e5	cv-c	DRSC25812
5.33e5	3.28e5	8.90e5	5.58e5	cv-c	DRSC27016

Sorted by “Renilla control light, replicate 2” (highest first): some entries from above.
firefly reporter light, replicate 1	firefly reporter light, replicate 2	Renilla control light, replicate 1	Renilla control light, replicate 2	Target gene	amplicon
2.32e5	1.75e5	2.40e6	2.03e6	uif	DRSC03427
3.55e5	3.76e5	1.98e6	1.89e6	Sec61beta	DRSC07548
6.49e5	7.52e5	1.54e6	1.84e6	Sec61beta	DRSC21512
1.42e5	1.39e5	1.13e6	1.37e6	ACXB	DRSC00845
3.26e5	4.89e5	1.09e6	1.36e6	Sec61beta	DRSC28915
5.44e5	6.99e5	1.34e6	1.34e6	spi	DRSC29414
1.50e5	70641	1.46e6	9.38e5	spi	DRSC03618
5.75e5	6.91e5	7.04e5	6.72e5	CG33502 + CG32857 + CG32500	DRSC20817
3.51e5	3.69e5	6.18e5	6.21e5	ACXB	DRSC26343
2.14e5	1.33e5	3.43e5	3.90e5	CG33502 + CG32857 + CG32500	DRSC21038
